Reference: patent publication US20150133554A1, “PURIFICATION OF DPA ENRICHED OIL” (Omega Protein Corporation, priority 2013, published 2015)
Entries after “also recorded” stand apart in the source; their conditions may differ. At least one structure is not confirmed: it was looked up by name or label, or the drawing left a doubt.

Experiments:
LDLr−/− mice [1] = assay: Lipid and cholesterol (TC, FC, CE) in aortas of LDLr−/− mice fed an atherogenic diet; type: in vivo; settings: for Cholesterol deposition in the aortas (conclusion of Examples 2-5): mouse, in vivo
Text: 48 male LDLr−/− mice (8-10 weeks of age, ˜20 g) were obtained from Jackson Laboratories (stock #2207) and allowed to acclimate to the cages, room, and feeding design for 12 days. After the acclimation period mice were weighed and randomly assigned to one of six treatments. Mice were fed an isolipid (20% total fatty acids w/w), isonitrogenous, and 0.2% cholesterol (w/w) diet, which is considered atherogenic (Ain76, 58TQ TestDiet®) as a base diet. This base diet was formulated to meet or exceed all nutrient and energy requirements for a growing mouse. The treatments were added to the base diet (0.76% w/w of the total diet) and was made once at the beginning of the study, separated into weekly aliquots, stored at −80° C., allowed to thaw at 4° C. for 2 days prior to feeding, and stored at 4° C. until fed. A sample from each weekly aliquot was collected, composited, and archived for fatty acid analysis at a later date. The treatments were as follows: (1) Negative control diet, 3.5% of the total fatty acids were replaced with milk fat (the only source of fat in the base diet), (2) 3.5% of the total fatty acids were replaced with purified ethyl esters of DHA, (3) 3.5% of the total fatty acids were replaced with purified ethyl esters of DPAn3, (4) 3.5% of the total fatty acids were replaced with purified ethyl esters of EPA, (5) 3.5% of the total fatty acids were replaced with omega-3 fatty acids from Lovaza® (GlaxoSmithKline), and (6) 3.5% of the total fatty acids were replaced with omega-3 fatty acids from ΩmegaActiv® DPA 5000 (Omega Protein Inc., Houston, Tex.; Table 1).
Mouse body weights were recorded once weekly in conjunction with cage changes. Blood serum lipid profiles were analyzed on blood samples from the mice before (subset of 6 mice), 10 weeks, and 20 weeks relative to initiation of dietary treatments. Three to five days prior to the end of the study each mouse was administered an intraperitoneal injection of 1.0 mL thioglycollate broth (4.05 g/dL) to elicit peritoneal macrophages. The peritoneal cells centrifuged then cultured in RPMI 1640 (+2 mM L-glutamine, +10 mM HEPES, +1 mM sodium pyruvate, +4500 mg/L glucose, +1500 mg/L sodium bicarbonate) on tissue culture plates (size) which allowed for adhesion of the macrophages. Plates where then vigorously washed to ensure proper macrophage isolation. Macrophages were scraped off the plates and aliquotted into a glass tube for fatty acid extraction, which was then performed via a modified Folch method. The heart and aorta were isolated from each mouse and immediately frozen in liquid nitrogen for later dissection. Aortic arches were dissected from the aortic root to the abdominal aorta using a microscope. Total lipid content was measured using the procedure outline by Folch, et al. (1957) J. Biol. Chem., 226:497-509, prior to cholesterol assessment. Total cholesterol, free cholesterol, and cholesterol ester were quantified as previously described (Wang, et al., 2010, Clin. Nutr., DOI: 10.1016/j.clnu.2013.04.009).
An analysis of variance model was used in R, aov in the stats package, for estimating treatment effects on cholesterol deposition in mouse aortas. Least squares means and contrasts were analyzed as outlined above. Pairwise comparisons were made between treatments for TC, FC, and CE.

LDLr−/− mice [2] = assay: Serum lipid profile of LDLr−/− mice fed an atherogenic diet; settings: mouse, in vivo
Text: (§1) 48 male LDLr−/− mice (8-10 weeks of age, ˜20 g) were obtained from Jackson Laboratories (stock #2207) and allowed to acclimate to the cages, room, and feeding design for 12 days. After the acclimation period mice were weighed and randomly assigned to one of six treatments. Mice were fed an isolipid (20% total fatty acids w/w), isonitrogenous, and 0.2% cholesterol (w/w) diet, which is considered atherogenic (Ain76, 58TQ TestDiet®) as a base diet. This base diet was formulated to meet or exceed all nutrient and energy requirements for a growing mouse. The treatments were added to the base diet (0.76% w/w of the total diet) and was made once at the beginning of the study, separated into weekly aliquots, stored at −80° C., allowed to thaw at 4° C. for 2 days prior to feeding, and stored at 4° C. until fed. A sample from each weekly aliquot was collected, composited, and archived for fatty acid analysis at a later date. […]
(§2) Mouse body weights were recorded once weekly in conjunction with cage changes. Blood serum lipid profiles were analyzed on blood samples from the mice before (subset of 6 mice), 10 weeks, and 20 weeks relative to initiation of dietary treatments. […] Total lipid content was measured using the procedure outline by Folch, et al. (1957) J. Biol. Chem., 226:497-509, prior to cholesterol assessment. Total cholesterol, free cholesterol, and cholesterol ester were quantified as previously described (Wang, et al., 2010, Clin. Nutr., DOI: 10.1016/j.clnu.2013.04.009).
Average daily feed intake for the mice was cut into quartiles in order to assign a feed consumption class. […] Least squares means were calculated using the lsmeans package for all blood lipid profiles and a general linear hypothesis test, using glht in the multcomp package, was utilized for specified contrasts, control vs. the average of all omega-3 containing diets. […]

THP-1 cells = assay: Cytokine release (TNF-α, MCP-1, IL-6) by LPS-stimulated THP-1 macrophages after fatty acid incubation; type: cell-based
Method: THP-1 cells were maintained in RPMI 1640+2 mM L-Glutamine, 10 mM HEPES, 1 mM sodium pyruvate, 4500 mg/L glucose, and 1500 mg/L sodium bicarbonate; supplemented with 3.5 μL/L of 2-mercaptoethanol and 10% fetal bovine serum (FBS). Cell line was maintained in 75 cm^2 filtered cap flasks in a 37° C. incubator with 5% CO2. THP-1 cells were seeded in 24 well plates at 5×10^5 cells/mL using 600 μL/well and allowed to differentiate into macrophages (MΦ) for 72 h with phorbol 12-myristate 13-acetate (PMA) at a final concentration of 50 ng/mL.
Experiment 1: Prior to incubation with individual fatty acids, the cells were starved for 8 h in a 2% lipo-free FBS RPMI medium. Individual fatty acids were added in duplicate into the 24 well plate at two concentrations, 50 μM and 100 μM. Every assay was cultured in three runs with duplicates in each run pooled. After incubation for 24 h with fatty acids the MΦ were scraped off the plates and fatty acids were isolated as described in the ‘Animal Tests’ portion of this Example. The fatty acid profiles of the MΦ were determined as previously described (Wang, et al., 2010, Clin. Nutr., DOI: 10.1016/j.clnu.2013.04.009).
Experiment 2: Previously differentiated MΦ were incubated with fatty acids as described in ‘Experiment 1’ for 24 hours. At the 24 h time point the cells were then stimulated with lipopolysaccharide from E. coli 0111:B4 for another 24 hours. The plates were centrifuged at 1200×g for 5 minutes and supernatant was then collected and analyzed for cytokines. The MΦ were scraped off the plates and fatty acids were isolated as described in the ‘Animal Portion’. The fatty acid profiles of the MΦ were determined as previously described (Wang, et al., 2010, Clin. Nutr., DOI: 10.1016/j.clnu.2013.04.009).
A linear mixed effects model was used in R, lme in the nlme package, for estimating treatment effects on cytokine production in LPS stimulated THP-1 cells. […] Least squares means were analyzed as outlined above and pairwise comparisons were made between treatments for FA concentration, or where significant LPS concentration. […]

LDLr−/− mice [3] = assay: Immunohistochemistry of brain inflammation (cerebrovasculature, hippocampus) in LDLr−/− mice; settings: mouse, in vivo
LDLr−/− mice [4] = assay: Serum glucose of LDLr−/− mice fed an atherogenic diet; type: in vivo; settings: 20 weeks
Text: as §1, with “fed.” for “fed. A sample from each weekly aliquot was collected, composited, and archived for fatty acid analysis at a later date.”
as §2, with “10.1016/j.clnu.2013.04.009). […]” for “10.1016/j.clnu.2013.04.009).”

Compound	Cholesterol deposition in the aortas (conclusion of Examples 2-5) (LDLr−/− mice [1])	Plasma lipids (conclusion of Examples 2-5) (LDLr−/− mice [2])	Inflammatory secretion (conclusion of Examples 2-5) (THP-1 cells)	Brain inflammation (conclusion of Examples 2-5) (LDLr−/− mice [3])	Serum (fasting) glucose, comparison of treatments in words (LDLr−/− mice [4])	Aortic cholesterol ester (CE), in words (LDLr−/− mice [1]; compared to control diet)	Aortic free cholesterol (FC), in words (LDLr−/− mice [1]; compared to control diet)	Aortic total cholesterol (TC), in words (LDLr−/− mice [1]; compared to control diet)
CC/C=C\C/C=C\C/C=C\C/C=C\C/C=C\C/C=C\CCC(=O)O [DHA, docosahexaenoic acid]	decrease	decrease	decrease	decrease				
CC/C=C\C/C=C\C/C=C\C/C=C\C/C=C\CCCCCC(=O)O [DPA, docosapentaenoic acid]	decrease	decrease	decrease	decrease	significantly lower glucose in blood than control and all other treatments; also recorded: the only omega-3 showing lower fasting glucose level than control			
CC/C=C\C/C=C\C/C=C\C/C=C\C/C=C\CCCC(=O)O [EPA, eicosapentaenoic acid]	decrease	decrease	decrease	decrease		decreased	decreased	decreased
